Measurements taken from patent publication US20190100600A1.
These are yes or no findings as the source states them, for the method shown. Some results given as binding are weak or reduced against the parent protein; the word gives no strength. Sequences can lack the tags named with a protein.

Amino acid sequences for entries named in this document (tags omitted). Residues count along the entry.
UniProt O75581, residues 20-1370: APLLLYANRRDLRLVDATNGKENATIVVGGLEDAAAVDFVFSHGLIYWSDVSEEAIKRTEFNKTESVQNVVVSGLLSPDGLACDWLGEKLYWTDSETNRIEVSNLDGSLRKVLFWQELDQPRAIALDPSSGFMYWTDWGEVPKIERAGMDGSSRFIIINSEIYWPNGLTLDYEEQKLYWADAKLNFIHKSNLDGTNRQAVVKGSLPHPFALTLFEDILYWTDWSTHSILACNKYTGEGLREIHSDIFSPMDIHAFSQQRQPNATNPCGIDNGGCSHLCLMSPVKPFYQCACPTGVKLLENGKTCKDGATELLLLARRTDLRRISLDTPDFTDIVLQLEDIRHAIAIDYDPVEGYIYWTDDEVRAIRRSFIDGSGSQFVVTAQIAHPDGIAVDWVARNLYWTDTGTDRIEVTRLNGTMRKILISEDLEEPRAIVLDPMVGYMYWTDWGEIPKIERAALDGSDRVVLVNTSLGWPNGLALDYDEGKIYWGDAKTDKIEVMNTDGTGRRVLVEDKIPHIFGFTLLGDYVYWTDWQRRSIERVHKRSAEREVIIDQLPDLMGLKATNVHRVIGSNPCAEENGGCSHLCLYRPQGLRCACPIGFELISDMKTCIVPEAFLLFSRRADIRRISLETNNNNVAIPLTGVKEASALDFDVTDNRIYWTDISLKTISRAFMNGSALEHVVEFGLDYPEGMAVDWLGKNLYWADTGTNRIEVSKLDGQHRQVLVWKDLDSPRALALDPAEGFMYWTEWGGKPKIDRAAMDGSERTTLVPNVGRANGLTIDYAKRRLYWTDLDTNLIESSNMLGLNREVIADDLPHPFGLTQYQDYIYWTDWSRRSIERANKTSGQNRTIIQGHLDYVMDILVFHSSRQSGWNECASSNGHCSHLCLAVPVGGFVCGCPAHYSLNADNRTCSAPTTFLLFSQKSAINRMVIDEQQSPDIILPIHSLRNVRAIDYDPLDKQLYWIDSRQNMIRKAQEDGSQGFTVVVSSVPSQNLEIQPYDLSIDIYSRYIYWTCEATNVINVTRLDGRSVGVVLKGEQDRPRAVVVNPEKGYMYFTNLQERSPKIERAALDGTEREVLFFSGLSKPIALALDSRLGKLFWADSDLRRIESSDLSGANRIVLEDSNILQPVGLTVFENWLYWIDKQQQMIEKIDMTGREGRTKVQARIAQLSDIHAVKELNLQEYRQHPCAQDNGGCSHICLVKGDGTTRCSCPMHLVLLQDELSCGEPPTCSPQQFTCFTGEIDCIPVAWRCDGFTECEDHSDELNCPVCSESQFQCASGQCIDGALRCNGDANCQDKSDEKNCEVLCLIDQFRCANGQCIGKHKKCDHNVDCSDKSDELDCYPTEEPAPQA
UniProt Q9ULT6, residues 56-219: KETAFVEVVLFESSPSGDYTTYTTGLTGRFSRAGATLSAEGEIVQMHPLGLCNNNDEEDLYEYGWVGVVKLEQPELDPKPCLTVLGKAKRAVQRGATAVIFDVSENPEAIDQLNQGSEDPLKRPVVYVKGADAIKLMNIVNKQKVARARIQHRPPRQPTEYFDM

How the values were obtained:
LRP6-Fc = LRP6-Fc (UniProt O75581); test: ELISA, LRP6-Fc coated, LGR5-Fc preincubated with R-spondin 1/2/3/4 or Norrin, detection with anti-FLAG mAb
RNF43-Fc [1] = molecular target: T1, RNF43-Fc (UniProt Q68DV7); test: ELISA, RNF43-Fc coated, LGR5-Fc preincubated with R-spondin 1/2/3/4 or Norrin, detection with anti-FLAG mAb
T1 sequence (looked up): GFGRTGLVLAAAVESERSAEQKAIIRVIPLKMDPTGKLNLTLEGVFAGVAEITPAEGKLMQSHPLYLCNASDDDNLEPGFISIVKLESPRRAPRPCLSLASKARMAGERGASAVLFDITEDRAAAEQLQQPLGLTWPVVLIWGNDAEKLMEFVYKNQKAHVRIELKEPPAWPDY

ZNRF3-Fc = ZNRF3-Fc (UniProt Q9ULT6); test: ELISA, ZNRF3-Fc coated, LGR5-Fc preincubated with R-spondin 1/2/3/4 or Norrin, detection with anti-FLAG mAb
RNF43-Fc [2] = molecular target: T1, RNF43-Fc; test: ELISA: coated hRNF43-Fc, hLGR5-Fc preincubated with hNorrin, bound hLGR5-Fc detected with anti-FLAG; ternary complex
RNF43-Fc [3] = molecular target: T1, RNF43-Fc; test: ELISA: coated hRNF43-Fc, hLGR5-Fc preincubated with hRspo 1, bound hLGR5-Fc detected with anti-FLAG; ternary complex
RNF43-Fc [4] = molecular target: T1, RNF43-Fc; test: ELISA: coated hRNF43-Fc, hLGR5-Fc preincubated with hRspo 2, bound hLGR5-Fc detected with anti-FLAG; ternary complex
RNF43-Fc [5] = molecular target: T1, RNF43-Fc; test: ELISA: coated hRNF43-Fc, hLGR5-Fc preincubated with hRspo 3, bound hLGR5-Fc detected with anti-FLAG; ternary complex
RNF43-Fc [6] = molecular target: T1, RNF43-Fc; test: ELISA: coated hRNF43-Fc, hLGR5-Fc preincubated with hRspo 4, bound hLGR5-Fc detected with anti-FLAG; ternary complex

Measured: binding

B1: purified recombinant LGR5 ectodomain-IgG-Fc fusion (Fc fusion, not shown: a dimerising Fc or GST)
chain: GSSPRSGVLLRGCPTHCHCEPDGRMLLRVDCSDLGLSELPSNLSVFTSYLDLSMNNISQLLPNPLPSLRFLEELRLAGNALTYIPKGAFTGLYSLKVLMLQNNQLRHVPTEALQNLRSLQSLRLDANHISYVPPSCFSGLHSLRHLWLDDNALTEIPVQAFRSLSALQAMTLALNKIHHIPDYAFGNLSSLVVLHLHNNRIHSLGKKCFDGLHSLETLDLNYNNLDEFPTAIRTLSNLKELGFHSNNIRSIPEKAFVGNPSLITIHFYDNPIQFVGRSAFQHLPELRTLTLNGASQITEFPDLTGTANLESLTLTGAQISSLPQTVCNQLPNLQVLDLSYNLLEDLPSFSVCQKLQKIDLRHNEIYEIKVDTFQQLLSLRSLNLAWNKIAIIHPNAFSTLPSLIKLDLSSNLLSSFPITGLHGLTHLKLTGNHALQSLISSENFPELKVIEMPYAYQCCAFGVCENAYKISNQWNKGDNSSMDDLHKKDAGMFQAQDERDLEDFLLDFEEDLKALHSVQCSPSPGPFKPCEHLLDGWLIR
binds: LRP6-Fc | RNF43-Fc [1] | ZNRF3-Fc | RNF43-Fc [2] | RNF43-Fc [3] | RNF43-Fc [4] | RNF43-Fc [5] | RNF43-Fc [6]
